Laboratory results from patent US20230203142A1, “TREATMENT OF METABOLIC DISORDERS THROUGH THE TARGETING OF A NOVEL CIRCULATING HORMONE COMPLEX” (The President and Fellows of Harvard College, priority 2020, published 2023).

System: non-diabetic NOD mice
Test: Immune phenotyping (FACS) of tissues of treated NOD mice
Type: in vivo, mouse
Method: To perform immune phenotyping, mice were euthanized with CO2 and cardiac perfusion performed with 40 ml of sterile PBS. Whole pancreas, pancreatic lymph nodes (PLN), inguinal lymph nodes (ILN), and spleen were harvested, diced into 1 mm pieces, placed in digestion buffer (RPMI 1640, lmg/ml Collagenase Type IV, 10 U/ml DNAsel, and 1% BSA), and incubated at 37° C. for 20 min shaking at 250 rpm. Pancreas samples were filtered through a 40 μm nylon strainer into a fresh 50 ml tube, and fresh media added up to 40 ml (RPMI 1640, 1% FBS, 1% Sodium Pyruvate, 1.56 ul β-mercaptoethanol). Tubes were then centrifuged at 1500 rpm for 10 min, supernatant removed, and cells resuspended in 2 ml fresh media. Resuspended cells were passed through a 40 μm nylon filter into a 15 ml round-bottomed polystyrene tube. For PLN, ILN, and spleen, digestion samples were filtered through a 40 μm nylon strainer into a 15 ml round bottom polystyrene tube, and lml of media was added. Spleen samples had supernatant removed, and lml ACK lysis buffer (Thermo Scientific A1049201) added for 2 min at room temperature. Samples were then centrifuged at 1500 rpm for 5 min, and resuspended in 1 ml media. All samples were centrifuged at 1500 rpm for 5 min, supernatant removed, and cells resuspended in FACS buffer (5% BSA in cold PBS; 0.5 ml for PLN and ILN, lml for pancreas and spleen). Staining and FACS analysis were performed as previously described (Engin et al., 2013).

[1] = inguinal lymph nodes, non-diabetic NOD mice, mean
[2] = pancreatic lymph nodes, non-diabetic NOD mice, mean

B1: a-Ab: monoclonal antibody previously reported as CA33; heavy chain SEQ ID NO 446, light chain SEQ ID NO 447; binds FABP4 and NDPK (antibody, listed as Homo sapiens)
heavy: QSVEESGGRLVTPGTPLTLTCTVSGFSLSTYYMSWVRQAPGKGLEWIGIIYPSGSTYCASWAKGRFTISKASTTVDLKITSPTTEDTATYFCARPDNDGTSGYLSGFGLWGQGLVTVSSAKTTPPSVYPLAPGSAAQTNSMVTLGCLVKGYFPEPVTVTWNSGSLSSGVHTFPAVLQSDLYTLSSSVTVPSSTWPSETVTCNVAHPASSTKVDKKIVPRDC
light: DVVMTQTPASVSEPVGGTVTIKCGASEDISRYLVWYQQKPGQPPKRLIYKASTLASGVPSRFKGSGSGTDFTLTISDLECDDAATYYCQCTYGTYAGSFFYSFGGGTEVVVERTDAAPTVSIFPPSSEQLTSGGASVVCFLNNFYPKDINVKWKIDGSERQNGVLNSWTDQDSKDCTYSMSSTLTLTKDEYERHNSYTCEATHKTSTSPIVKSFNRNEC
B1 was tested, and the “ILN B Cells” value [1] was 19.0%, the “ILN CD45+” value [1] was 98.8% and the “ILN Dendritic Cells” value [1] was 4.8%. The “ILN Granulocytes” value [1] was 2.3%, the “ILN Regulatory T-Cells” value [1] was 3.9% and the “ILN T-Helper Cells” value [1] was 56.6%. The “Spleen B Cells” value (non-diabetic NOD mice, mean) was 51.3%, the “Spleen CD45+” value (non-diabetic NOD mice, mean) was 96.2% and the “Spleen Dendritic Cells” value (non-diabetic NOD mice, mean) was 0.98%. For the same molecule, the “Spleen Granulocytes” value (non-diabetic NOD mice, mean) was 2.0%, the “Spleen Regulatory T-Cells” value (non-diabetic NOD mice, mean) was 3.1% and the “Spleen T-Helper Cells” value (non-diabetic NOD mice, mean) was 30.4%. For the same molecule, the “PLN B Cells” value [2] was 38.1%, the “PLN CD45+” value [2] was 97.4% and the “PLN Dendritic Cells” value [2] was 12.9%. For the same molecule, the “PLN Granulocytes” value [2] was 5.0%, the “PLN Regulatory T-Cells” value [2] was 3.3% and the “PLN T-Helper Cells” value [2] was 41.3%. The “percentage of total immune cell numbers” value (whole pancreas, non-diabetic mice, 12 wks) was “significantly reduced”.
